# Assays:
# rats = test: Administration of TTA to rats for 12 weeks, hepatic and plasma fatty acid content; type: in vivo, rat
# obese Zucker fa/fa rats = test: Fatty acid composition in liver and plasma of obese Zucker fa/fa rats (Example 19); type: in vivo, rat; conditions: 300 mg/day/kg gavage once daily for 10 days
# Method: Male obese Zucker fa/fa rats, weighing 100 g at the start of the experiment, were housed in pairs in metal wire cages in a room maintained at 12 h light-dark cycles and a constant temperature of 20±3° C. The animals were acclimatised for at least one week under these conditions before the start of the experiment.
# TTA and palmitic acid (control), was suspended in 0.5% (w/v) carboxymethyl cellulose (CMC) and administered at a dose of 300 mg/day/kg body weight, by gastric intubation (gavage) once daily for 10 days. The rats were fasted for 2 hours before termination of the experiment. Blood and organs were collected. Total lipids were extracted from liver and plasma. The lipids were evaporated, saponified and esterified prior to separation using a Carlo Erba 2900 gas-chromatograph.
substance,measurement,setting,value
Tetradecylthioacetic acid [TTA],Hepatic and plasma content of monounsaturated fatty acids (mainly oleic acid),rats,nearly doubled
same,Polyunsaturated fatty acids (mainly linoleic acid and DHA),rats; hepatic and plasma content,decreased
same,"Oleic acid, fatty acid composition in liver (% of total)",obese Zucker fa/fa rats,14.9 ± 1.0 % of total
same,"Oleic acid, fatty acid composition in plasma (% of total)",obese Zucker fa/fa rats,22.1 ± 0.5 % of total
